The values below come from article PMC4666396.

These are yes or no findings as the source states them, for the method shown. In cells and extracts the contact can be indirect. These calls come from enrichment with a bait or labelling near it, and not all partners need be listed.

This assay deals with T1, Splicing factor 1 (SF1) (human (endogenous in HeLa)) (UniProt Q15637).
T1 sequence: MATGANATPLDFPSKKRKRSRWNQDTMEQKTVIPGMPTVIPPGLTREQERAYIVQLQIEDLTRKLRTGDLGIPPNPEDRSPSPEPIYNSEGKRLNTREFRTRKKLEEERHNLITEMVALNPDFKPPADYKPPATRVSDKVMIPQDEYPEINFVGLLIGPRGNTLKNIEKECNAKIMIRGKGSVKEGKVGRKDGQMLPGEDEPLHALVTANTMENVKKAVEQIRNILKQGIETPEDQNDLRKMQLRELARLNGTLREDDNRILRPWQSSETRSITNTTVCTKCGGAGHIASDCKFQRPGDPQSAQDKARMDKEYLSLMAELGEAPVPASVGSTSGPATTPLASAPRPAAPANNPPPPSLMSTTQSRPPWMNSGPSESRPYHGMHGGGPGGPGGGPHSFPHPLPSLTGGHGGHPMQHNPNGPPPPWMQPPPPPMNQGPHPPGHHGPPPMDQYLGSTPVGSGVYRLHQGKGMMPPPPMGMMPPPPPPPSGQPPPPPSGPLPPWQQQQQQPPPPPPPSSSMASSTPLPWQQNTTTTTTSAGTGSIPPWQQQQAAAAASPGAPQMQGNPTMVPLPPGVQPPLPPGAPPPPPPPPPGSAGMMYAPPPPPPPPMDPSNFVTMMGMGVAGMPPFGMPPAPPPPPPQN
In words: affinity purification with mass spectrometry; anti-SF1 on Protein G Sepharose; HeLa cell nuclear extract without or with 0.3 mg/ml RNase A; IP buffer 50 mM Tris-HCl pH 7.9, 100 mM NaCl, 0.05% NP-40, 0.5 mM DTT, 1 h 4°C; 1D PAGE, LC-MSMS; control mouse IgG.

B1: hSNU66 (protein, UniProt O43290 1-800)
chain: MGSSKKHRGEKEAAGTTAAAGTGGATEQPPRHREHKKHKHRSGGSGGSGGERRKRSRERGGERGSGRRGAEAEARSSTHGRERSQAEPSERRVKREKRDDGYEAAASSKTSSGDASSLSIEETNKLRAKLGLKPLEVNAIKKEAGTKEEPVTADVINPMALRQREELREKLAAAKEKRLLNQKLGKIKTLGEDDPWLDDTAAWIERSRQLQKEKDLAEKRAKLLEEMDQEFGVSTLVEEEFGQRRQDLYSARDLQGLTVEHAIDSFREGETMILTLKDKGVLQEEEDVLVNVNLVDKERAEKNVELRKKKPDYLPYAEDESVDDLAQQKPRSILSKYDEELEGERPHSFRLEQGGTADGLRERELEEIRAKLRLQAQSLSTVGPRLASEYLTPEEMVTFKKTKRRVKKIRKKEKEVVVRADDLLPLGDQTQDGDFGSRLRGRGRRRVSEVEEEKEPVPQPLPSDDTRVENMDISDEEEGGAPPPGSPQVLEEDEAELELQKQLEKGRRLRQLQQLQQLRDSGEKVVEIVKKLESRQRGWEEDEDPERKGAIVFNATSEFCRTLGEIPTYGLAGNREEQEELMDFERDEERSANGGSESDGEENIGWSTVNLDEEKQQQDFSASSTTILDEEPIVNRGLAAALLLCQNKGLLETTVQKVARVKAPNKSLPSAVYCIEDKMAIDDKYSRREEYRGFTQDFKEKDGYKPDVKIEYVDETGRKLTPKEAFRQLSHRFHGKGSGKMKTERRMKKLDEEALLKKMSSSDTPLGTVALLQEKQKAQKTPYIVLSGSGKSMNANTITK
In the case of B1, the binding entry is listed as “binds”.

B2: Acinus (protein, UniProt Q9UKV3 1-1341)
chain: MWRRKHPRTSGGTRGVLSGNRGVEYGSGRGHLGTFEGRWRKLPKMPEAVGTDPSTSRKMAELEEVTLDGKPLQALRVTDLKAALEQRGLAKSGQKSALVKRLKGALMLENLQKHSTPHAAFQPNSQIGEEMSQNSFIKQYLEKQQELLRQRLEREAREAAELEEASAESEDEMIHPEGVASLLPPDFQSSLERPELELSRHSPRKSSSISEEKGDSDDEKPRKGERRSSRVRQARAAKLSEGSQPAEEEEDQETPSRNLRVRADRNLKTEEEEEEEEEEEEDDEEEEGDDEGQKSREAPILKEFKEEGEEIPRVKPEEMMDERPKTRSQEQEVLERGGRFTRSQEEARKSHLARQQQEKEMKTTSPLEEEEREIKSSQGLKEKSKSPSPPRLTEDRKKASLVALPEQTASEEETPPPLLTKEASSPPPHPQLHSEEEIEPMEGPAPAVLIQLSPPNTDADTRELLVSQHTVQLVGGLSPLSSPSDTKAESPAEKVPEESVLPLVQKSTLADYSAQKDLEPESDRSAQPLPLKIEELALAKGITEECLKQPSLEQKEGRRASHTLLPSHRLKQSADSSSSRSSSSSSSSSRSRSRSPDSSGSRSHSPLRSKQRDVAQARTHANPRGRPKMGSRSTSESRSRSRSRSRSASSNSRKSLSPGVSRDSSTSYTETKDPSSGQEVATPPVPQLQVCEPKERTSTSSSSVQARRLSQPESAEKHVTQRLQPERGSPKKCEAEEAEPPAATQPQTSETQTSHLPESERIHHTVEEKEEVTMDTSENRPENDVPEPPMPIADQVSNDDRPEGSVEDEEKKESSLPKSFKRKISVVSATKGVPAGNSDTEGGQPGRKRRWGASTATTQKKPSISITTESLKSLIPDIKPLAGQEAVVDLHADDSRISEDETERNGDDGTHDKGLKICRTVTQVVPAEGQENGQREEEEEEKEPEAEPPVPPQVSVEVALPPPAEHEVKKVTLGDTLTRRSISQQKSGVSITIDDPVRTAQVPSPPRGKISNIVHISNLVRPFTLGQLKELLGRTGTLVEEAFWIDKIKSHCFVTYSTVEEAVATRTALHGVKWPQSNPKFLCADYAEQDELDYHRGLLVDRPSETKTEEQGIPRPLHPPPPPPVQPPQHPRAEQREQERAVREQWAEREREMERRERTRSEREWDRDKVREGPRSRSRSRDRRRKERAKSKEKKSEKKEKAQEEPPAKLLDDLFRKTKAAPCIYWLPLTDSQIVQKEAERAERAKEREKRRKEQEEEEQKEREKEAERERNRQLEREKRREHSRERDRERERERERDRGDRDRDRERDRERGRERDRRDTKRHSRSRSRSTPVRDRGGRR
With B2, the binding entry is reported as “binds”.
